Among the data in article PMC7051184, “C9orf72 arginine-rich dipeptide repeat proteins disrupt karyopherin-mediated nuclear import” (eLife, 2020) are binding values, retold here.

The chains behind the UniProt entries cited, without tags or fusion partners. Residues count along the entry.
GST-Nup100(1-610), GLFG domain of yeast Nup100 (Q02629, residues 1-610): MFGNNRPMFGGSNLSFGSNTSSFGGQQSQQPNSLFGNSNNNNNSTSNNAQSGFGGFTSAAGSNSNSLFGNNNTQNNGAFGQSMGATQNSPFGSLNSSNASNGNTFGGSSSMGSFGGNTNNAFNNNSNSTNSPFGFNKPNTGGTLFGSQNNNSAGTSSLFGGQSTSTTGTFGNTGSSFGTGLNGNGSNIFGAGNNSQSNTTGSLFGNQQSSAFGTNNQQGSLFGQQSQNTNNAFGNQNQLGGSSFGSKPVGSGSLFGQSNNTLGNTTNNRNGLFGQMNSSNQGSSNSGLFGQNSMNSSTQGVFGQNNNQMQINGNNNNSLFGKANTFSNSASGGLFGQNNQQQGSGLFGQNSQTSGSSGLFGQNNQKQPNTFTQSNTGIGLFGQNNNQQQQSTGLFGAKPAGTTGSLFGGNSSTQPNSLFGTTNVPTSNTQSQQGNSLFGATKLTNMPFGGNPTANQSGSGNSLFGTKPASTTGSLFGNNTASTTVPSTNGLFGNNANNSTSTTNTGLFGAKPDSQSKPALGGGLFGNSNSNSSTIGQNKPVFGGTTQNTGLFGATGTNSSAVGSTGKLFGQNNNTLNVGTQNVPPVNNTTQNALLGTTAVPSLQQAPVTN
GST-Nup100(1-307), GLFG domain of yeast Nup100 (Q02629, residues 1-307): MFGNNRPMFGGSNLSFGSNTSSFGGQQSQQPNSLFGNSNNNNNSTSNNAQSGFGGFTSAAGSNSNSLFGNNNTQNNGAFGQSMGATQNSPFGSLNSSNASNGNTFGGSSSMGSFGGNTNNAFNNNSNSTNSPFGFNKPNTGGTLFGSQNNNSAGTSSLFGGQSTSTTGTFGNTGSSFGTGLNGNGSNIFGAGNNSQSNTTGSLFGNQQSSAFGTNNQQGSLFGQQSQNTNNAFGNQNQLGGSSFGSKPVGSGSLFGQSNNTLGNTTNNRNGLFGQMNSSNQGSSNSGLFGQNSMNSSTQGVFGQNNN
UniProt Q02630, residues 348-458: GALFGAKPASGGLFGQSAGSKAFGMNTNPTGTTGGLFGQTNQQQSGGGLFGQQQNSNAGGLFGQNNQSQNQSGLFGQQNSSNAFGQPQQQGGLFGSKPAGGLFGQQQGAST
UniProt P02769, residues 25-607: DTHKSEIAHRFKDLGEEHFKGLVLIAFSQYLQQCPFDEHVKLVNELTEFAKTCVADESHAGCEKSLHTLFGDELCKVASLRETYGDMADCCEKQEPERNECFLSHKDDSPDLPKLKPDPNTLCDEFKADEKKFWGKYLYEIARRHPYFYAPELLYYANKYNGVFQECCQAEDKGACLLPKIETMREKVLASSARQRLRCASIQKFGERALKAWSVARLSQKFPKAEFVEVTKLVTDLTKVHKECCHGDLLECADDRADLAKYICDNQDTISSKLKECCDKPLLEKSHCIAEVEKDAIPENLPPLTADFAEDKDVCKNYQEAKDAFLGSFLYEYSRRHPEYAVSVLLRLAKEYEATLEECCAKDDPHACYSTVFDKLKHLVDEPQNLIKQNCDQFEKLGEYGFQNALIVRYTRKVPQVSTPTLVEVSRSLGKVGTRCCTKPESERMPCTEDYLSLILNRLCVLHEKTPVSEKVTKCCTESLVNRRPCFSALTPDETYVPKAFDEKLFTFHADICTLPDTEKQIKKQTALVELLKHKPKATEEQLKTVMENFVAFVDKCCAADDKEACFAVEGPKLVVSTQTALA
UniProt Q14974: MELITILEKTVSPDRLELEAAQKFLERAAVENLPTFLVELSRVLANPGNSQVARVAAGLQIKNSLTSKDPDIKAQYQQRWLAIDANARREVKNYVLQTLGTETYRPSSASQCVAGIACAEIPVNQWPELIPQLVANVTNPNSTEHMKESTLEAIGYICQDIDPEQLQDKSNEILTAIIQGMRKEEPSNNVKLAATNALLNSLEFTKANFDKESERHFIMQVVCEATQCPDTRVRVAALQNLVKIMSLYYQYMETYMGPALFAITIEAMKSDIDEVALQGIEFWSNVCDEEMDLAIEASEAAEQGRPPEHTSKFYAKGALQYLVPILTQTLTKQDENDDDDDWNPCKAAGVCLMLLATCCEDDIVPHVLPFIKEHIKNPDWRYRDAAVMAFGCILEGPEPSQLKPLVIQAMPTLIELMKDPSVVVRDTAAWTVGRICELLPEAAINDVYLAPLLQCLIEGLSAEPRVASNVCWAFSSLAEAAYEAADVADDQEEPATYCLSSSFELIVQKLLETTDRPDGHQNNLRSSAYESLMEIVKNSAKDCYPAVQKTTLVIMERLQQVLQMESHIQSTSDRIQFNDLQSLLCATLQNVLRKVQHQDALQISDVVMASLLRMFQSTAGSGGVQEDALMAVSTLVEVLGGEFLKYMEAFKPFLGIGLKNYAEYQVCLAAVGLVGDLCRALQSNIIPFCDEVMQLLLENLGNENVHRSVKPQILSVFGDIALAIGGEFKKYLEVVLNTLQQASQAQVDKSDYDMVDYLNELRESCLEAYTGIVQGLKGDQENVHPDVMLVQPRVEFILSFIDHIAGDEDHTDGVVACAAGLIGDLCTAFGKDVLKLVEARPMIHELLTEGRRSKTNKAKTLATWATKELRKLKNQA

Test [1] addresses GST-Nup100(1-610), GLFG domain of yeast Nup100 (S. cerevisiae) (UniProt Q02629). As to the kind of experiment: bead halo assay; GST-fused yeast FG- and GLFG-domains on glutathione polystyrene beads; AF488-DPRs in binding buffer; rim vs. background ratio, Nup116 F→A beads define the non-specific level; both purified.
Test [2] deals with GST-Nup116(348-458), GLFG domain of yeast Nup116 (S. cerevisiae) (UniProt Q02630). The description is as above.
Test [3] addresses GST-Nup100(1-307), GLFG domain of yeast Nup100 (S. cerevisiae) (UniProt Q02629). Described as above.
Test [4] addresses biotinylated BSA (bovine (from the name BSA)) (UniProt P02769). As to the kind of experiment: bead halo assay; biotinylated importin β or biotinylated BSA on neutravidin polystyrene beads; fluorescent prey (200 nM AF488-DPR, Rango) in binding buffer with assay buffer (EDTA, BSA, NaCl, Tween); room temperature, at least 30 min; confocal rim vs. background ratio; both purified.
For test [5], the target named is T1, PR10, synthetic poly-proline-arginine 10-mer dipeptide repeat protein with C-terminal lysine and cysteine (human).
T1 sequence (peptide): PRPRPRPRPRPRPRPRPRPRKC
Nature of the test: co-sedimentation; 50 µM GR10 or 25 µM PR10 added to 5 mg/ml HEK whole cell lysate (TRB with energy mix), 60 min at 37°C; aggregates pelleted at 16,000 g for 10 min, washed 2x; pellet analysed by LC/MS/MS; only the target purified.

The target in test [6] is T2, GR10, synthetic poly-glycine-arginine 10-mer dipeptide repeat protein with C-terminal lysine and cysteine (human).
T2 sequence (peptide): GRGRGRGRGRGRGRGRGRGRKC
The test is described as above.

Test [7] deals with T1, PR10, synthetic poly-proline-arginine 10-mer dipeptide repeat protein with C-terminal lysine and cysteine (human). Nature of the test: co-sedimentation; 100 µM DPR 10-mers added to 2.5 mg/ml HEK lysate in transport buffer with energy, 1 hr; aggregates pelleted, rinsed; equal volumes of supernatant and pellet analysed by immunoblot; only the target purified. (A western blot detects proteins with antibodies after separation by electrophoresis.)

Test [8] concerns the target T2, GR10, synthetic poly-glycine-arginine 10-mer dipeptide repeat protein with C-terminal lysine and cysteine (human). Described as above.
Test [9] deals with biotinylated BSA (bovine (from the name BSA)) (UniProt P02769). Nature of the test: bead halo assay; as a3, in the presence of 1 mg/ml neuron lysate; both purified.
The target in test [10] is biotinylated WT importin β-Avitag (human) (UniProt Q14974). Described as above.
The target in test [11] is GST-Nsp1(497-609), FxFG domain of yeast Nsp1 (S. cerevisiae) (UniProt P14907). Nature of the test: bead halo assay; GST-fused yeast FG- and GLFG-domains on glutathione polystyrene beads; AF488-DPRs in binding buffer; rim vs. background ratio, Nup116 F→A beads define the non-specific level; both purified.

No constants are given. Whether binding was seen depends on the method and setting. For some of these results: In cells and extracts the contact can be indirect. Some results given as binding are weak or reduced against the parent protein; the word gives no strength.

In the case of PRPRPRPRPRPRPRPRPRPRKC (Alexa Fluor 488 C5-maleimide on the C-terminal cysteine) [AF488-labeled PR10], the binding result in [1] is on record as “binds weakly”; in test [2] it was “no binding”; in test [3], “binds weakly”; in [4], “no binding (tested: 200 nM)”.

B1: Matrin-3 of HEK cell lysate (protein, UniProt P43243 1-847)
chain: MSKSFQQSSLSRDSQGHGRDLSAAGIGLLAAATQSLSMPASLGRMNQGTARLASLMNLGMSSSLNQQGAHSALSSASTSSHNLQSIFNIGSRGPLPLSSQHRGDADQASNILASFGLSARDLDELSRYPEDKITPENLPQILLQLKRRRTEEGPTLSYGRDGRSATREPPYRVPRDDWEEKRHFRRDSFDDRGPSLNPVLDYDHGSRSQESGYYDRMDYEDDRLRDGERCRDDSFFGETSHNYHKFDSEYERMGRGPGPLQERSLFEKKRGAPPSSNIEDFHGLLPKGYPHLCSICDLPVHSNKEWSQHINGASHSRRCQLLLEIYPEWNPDNDTGHTMGDPFMLQQSTNPAPGILGPPPPSFHLGGPAVGPRGNLGAGNGNLQGPRHMQKGRVETSRVVHIMDFQRGKNLRYQLLQLVEPFGVISNHLILNKINEAFIEMATTEDAQAAVDYYTTTPALVFGKPVRVHLSQKYKRIKKPEGKPDQKFDQKQELGRVIHLSNLPHSGYSDSAVLKLAEPYGKIKNYILMRMKSQAFIEMETREDAMAMVDHCLKKALWFQGRCVKVDLSEKYKKLVLRIPNRGIDLLKKDKSRKRSYSPDGKESPSDKKSKTDGSQKTESSTEGKEQEEKSGEDGEKDTKDDQTEQEPNMLLESEDELLVDEEEAAALLESGSSVGDETDLANLGDVASDGKKEPSDKAVKKDGSASAAAKKKLKKVDKIEELDQENEAALENGIKNEENTEPGAESSENADDPNKDTSENADGQSDENKDDYTIPDEYRIGPYQPNVPVGIDYVIPKTGFYCKLCSLFYTNEEVAKNTHCSSLPHYQKLKKFLNKLAEERRQKKET
Turning to B1, the binding result in test [5], in test [6], in [7] and in test [8] was “binds” each time.

B2: Nup133 of HEK cell lysate (protein, UniProt Q8WUM0 1-1156)
chain: MFPAAPSPRTPGTGSRRGPLAGLGPGSTPRTASRKGLPLGSAVSSPVLFSPVGRRSSLSSRGTPTRMFPHHSITESVNYDVKTFGSSLPVKVMEALTLAEVDDQLTINIDEGGWACLVCKEKLIIWKIALSPITKLSVCKELQLPPSDFHWSADLVALSYSSPSGEAHSTQAVAVMVATREGSIRYWPSLAGEDTYTEAFVDSGGDKTYSFLTAVQGGSFILSSSGSQLIRLIPESSGKIHQHILPQGQGMLSGIGRKVSSLFGILSPSSDLTLSSVLWDRERSSFYSLTSSNISKWELDDSSEKHAYSWDINRALKENITDAIWGSESNYEAIKEGVNIRYLDLKQNCDGLVILAAAWHSADNPCLIYYSLITIEDNGCQMSDAVTVEVTQYNPPFQSEDLILCQLTVPNFSNQTAYLYNESAVYVCSTGTGKFSLPQEKIVFNAQGDSVLGAGACGGVPIIFSRNSGLVSITSRENVSILAEDLEGSLASSVAGPNSESMIFETTTKNETIAQEDKIKLLKAAFLQYCRKDLGHAQMVVDELFSSHSDLDSDSELDRAVTQISVDLMDDYPASDPRWAESVPEEAPGFSNTSLIILHQLEDKMKAHSFLMDFIHQVGLFGRLGSFPVRGTPMATRLLLCEHAEKLSAAIVLKNHHSRLSDLVNTAILIALNKREYEIPSNLTPADVFFREVSQVDTICECLLEHEEQVLRDAPMDSIEWAEVVINVNNILKDMLQAASHYRQNRNSLYRREESLEKEPEYVPWTATSGPGGIRTVIIRQHEIVLKVAYPQADSNLRNIVTEQLVALIDCFLDGYVSQLKSVDKSSNRERYDNLEMEYLQKRSDLLSPLLSLGQYLWAASLAEKYCDFDILVQMCEQTDNQSRLQRYMTQFADQNFSDFLFRWYLEKGKRGKLLSQPISQHGQLANFLQAHEHLSWLHEINSQELEKAHATLLGLANMETRYFAKKKTLLGLSKLAALASDFSEDMLQEKIEEMAEQERFLLHQETLPEQLLAEKQLNLSAMPVLTAPQLIGLYICEENRRANEYDFKKALDLLEYIDEEEDININDLKLEILCKALQRDNWSSSDGKDDPIEVSKDSIFVKILQKLLKDGIQLSEYLPEVKDLLQADQLGSLKSNPYFEFVLKANYEYYVQGQI
B2: the binding result in test [7] and in test [8] was “binds” in each case.
Take GRGRGRGRGRGRGRGRGRGRKC (Alexa Fluor 488 C5-maleimide on the C-terminal cysteine) [AF488-labeled GR10]: the binding entry in test [9] is recorded as “no binding”; in test [10], “no binding (condition: with 1 mg/ml neuronal lysate)”; in test [1], “binds weakly”; in test [2], “no binding”; in [11], “no binding”; in [3], “binds weakly”. Also, the binding result in test [4] was “no binding (tested: 200 nM)”.

B3: Nup54 of HEK cell lysate (protein, UniProt Q7Z3B4 1-507)
chain: MAFNFGAPSGTSGTAAATAAPAGGFGGFGTTSTTAGSAFSFSAPTNTGTTGLFGGTQNKGFGFGTGFGTTTGTSTGLGTGLGTGLGFGGFNTQQQQQTTLGGLFSQPTQAPTQSNQLINTASALSAPTLLGDERDAILAKWNQLQAFWGTGKGYFNNNIPPVEFTQENPFCRFKAVGYSCMPSNKDEDGLVVLVFNKKETEIRSQQQQLVESLHKVLGGNQTLTVNVEGTKTLPDDQTEVVIYVVERSPNGTSRRVPATTLYAHFEQANIKTQLQQLGVTLSMTRTELSPAQIKQLLQNPPAGVDPIIWEQAKVDNPDSEKLIPVPMVGFKELLRRLKVQDQMTKQHQTRLDIISEDISELQKNQTTSVAKIAQYKRKLMDLSHRTLQVLIKQEIQRKSGYAIQADEEQLRVQLDTIQGELNAPTQFKGRLNELMSQIRMQNHFGAVRSEERYYIDADLLREIKQHLKQQQEGLSHLISIIKDDLEDIKLVEHGLNETIHIRGGVFS
As for B3, the binding entry in [7] and in test [8] was “binds” in each case.
